Assay results: PubChem BioAssay AID2685 (National Center for Advancing Translational Sciences (NCATS), 2010)
“And” between values parts separate entries of the source, which are not always exact repeats. Equal values may be shown once. The list shows a part of the results. The main result of the screen is listed elsewhere. These columns were measured beside it and carry no call. Compounds called inactive in the main read-out are mostly missing here. Potencies come from curve fits of mixed quality, noted in brackets.

Test: qHTS Assay for Lipid Storage Modulators in Drosophila S3 Cells;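 on cell number change: cells counted by Cell Tracker Red CMTPX staining in the red channel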
Conditions: BODIPY lipid droplet fluorescence, 18-24 h; for cell number change: measured here: cell count max response, cells fed with added oleic acid
How it was run: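 Drosophila S3 cells loaded with oleic acid (400 uM, as added) and compounds at several concentrations; lipid droplets imaged by 488-nm laser-scanning cytometry, 500–530 nm intensity and object ratio to cell channel. Percent activity normalized to 20 uM Triacsin C.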

[1] = measured here: cell number channel AC50, cells fed with added oleic acid
[2] = measured here: lipid fluorescence (Fed channel) AC50, cells fed with added oleic acid

SMILES	cell number change	AC50 [1]	AC50 [2]
Cc1ccc(Nc2nc(-c3sc(C)nc3C)cs2)cc1	-51.3%	16.4 µM [falling, single point]	–
Nc1cc(=O)nc(SCC(=O)Nc2ccccc2)n1-c1ccccc1	28.5%	–	14.6 µM [rising, partial curve, poor fit]
CCOC(=O)c1cc(-c2ccccc2)sc1NC(=O)C(C)Sc1nnc(C)s1 (configuration not stated)	–	–	23.1 µM [falling, single point]
O=c1c2c(nc3nc(NCc4ccc(Cl)cc4)[nH]n13)CCC2	-23.1%	–	–
Cc1cc(NC(=O)c2ccccc2)nc2c1c(=O)oc1ccccc12	16.7%	–	0.0731 µM [rising, full curve, poor fit]
COc1ccc(CS(=O)(=O)c2nc(C)cc(C)c2S(C)(=O)=O)cc1	0.261%	–	1.3 µM [falling, partial curve, poor fit]
COc1ccc(NC(=S)NCc2cccn2C)cc1	0.901%	–	–
CCCN1CCN(C(=O)c2ccccc2-c2nc3ccccc3s2)CC1	8.74%	–	29.1 µM [rising, single point]
COc1ccc(/C=C2/Sc3ccc(C(=O)NCCN4CCCCCC4)cc3NC2=O)cc1	-16.3%	–	6.51 µM [rising, single point]
O=C(/C=C/c1ccccc1)NCCS(=O)(=O)N1CCN(c2ccccc2F)CC1	17.3%	–	–
CCCc1nc2nc(C)c(NS(=O)(=O)c3ccc(C4CCCCC4)cc3)c(=O)n2[nH]1	5.56%	–	0.092 µM [rising, full curve, poor fit]
CCn1c(SCC(=O)N2CCc3ccccc32)nnc1-c1ccncc1	-17.8%	–	29.1 µM [falling, single point]
Cn1nnnc1Sc1ncnc2scc(-c3ccccc3Cl)c12	-55.1%	4.11 µM [falling, full curve]	4.11 µM [falling, full curve]
O=C(COc1ccc(Cl)cc1)Nc1cc2c3c(c1)CC(=O)N3CCC2	29.6%	–	0.13 µM [rising, full curve, poor fit]
Cc1cc(NCCN2CCCCC2)n2c(nc3ccccc32)c1C#N	10.9%	–	4.61 µM [falling, partial curve]
CCn1c(=N)n(CC(O)c2cccs2)c2ccccc21 (configuration not stated)	-11.6%	–	0.13 µM [falling, full curve, poor fit]
Cc1cc(C)n2nc(-c3ccc(F)cc3)nc2n1	-12.6%	–	0.82 µM [falling, full curve, poor fit]
CNC(=S)/N=C(/Nc1ccccc1)c1ccccc1	-12.2%	–	0.82 µM [rising, partial curve, poor fit]
O=C(CSCC(=O)N1CCCCC1)Nc1nc(-c2ccccc2)c(-c2ccccc2)s1	-54.2%	13 µM [falling, partial curve]	23.1 µM [falling, partial curve]
COc1ccccc1NC(=O)CN1CCN(c2ccccc2)CC1	17.8%	0.00411 µM [falling, full curve, poor fit]	1.64 µM [falling, partial curve]

Among those listed so far, 2 contain fluorine.
SMILES	cell number change	AC50 [1]	AC50 [2]
O=C(/C=C/c1ccccc1)NCCS(=O)(=O)N1CCN(c2ccccc2F)CC1	17.3%	–	–
Cc1cc(C)n2nc(-c3ccc(F)cc3)nc2n1	-12.6%	–	0.82 µM [falling, full curve, poor fit]

A draw from above in order of molecular weight, descending:
SMILES	cell number change	AC50 [1]	AC50 [2]
CCOC(=O)c1cc(-c2ccccc2)sc1NC(=O)C(C)Sc1nnc(C)s1 (configuration not stated)	–	–	23.1 µM [falling, single point]
Nc1cc(=O)nc(SCC(=O)Nc2ccccc2)n1-c1ccccc1	28.5%	–	14.6 µM [rising, partial curve, poor fit]
Cc1cc(NCCN2CCCCC2)n2c(nc3ccccc32)c1C#N	10.9%	–	4.61 µM [falling, partial curve]

Following part.

SMILES	cell number change	AC50 [1]	AC50 [2]
CNC(=O)CSc1nnc(-c2cccs2)o1	15.9%	–	2.31 µM [rising, partial curve, poor fit]
COCCCNc1nc2ccccc2nc1NS(=O)(=O)c1ccc(C)cc1C	30.7%	0.92 µM [rising, full curve, poor fit]	1.3 µM [rising, full curve]
COc1ccc(OC)c(C(=O)c2ccc(C(=O)O)cc2)c1	81%	13 µM [rising, partial curve, poor fit]	1.84 µM [rising, partial curve, poor fit]
CCOC(=O)c1ccc(N2C(=O)CC(Nc3ccc(O)cc3)C2=O)cc1 (configuration not stated)	-40.7%	8.2 µM [falling, partial curve]	14.6 µM [falling, partial curve, poor fit]
Cc1ccc(/C=N/NC(=O)c2nnn(-c3nonc3N)c2CSc2ccccc2)o1	14.9%	–	–
C/C(=N\N(C)C)C1=C(O)c2ccccc2C1=O	6.25%	–	18.4 µM [rising, single point]
ONC(=Nc1ccccc1)c1ccc(Cl)cc1	15.9%	–	29.1 µM [rising, single point]
CN(C)/C=C/C(=O)c1nn(-c2ccc(F)cc2)ccc1=O	32.5%	29.1 µM [rising, single point]	–
Cc1ccc(C)c(-n2c(-c3csc(C)c3C)n[nH]c2=S)c1	8.76%	–	6.51 µM [rising, partial curve, poor fit]
O=C(OCc1nc2ccccc2[n+]([O-])c1C(=O)c1ccccc1)c1ccco1	1.9%	–	4.11 µM [rising, single point]
CCC1(c2ccccc2)NC(=O)N(CC(=O)NCc2ccncc2)C1=O (configuration not stated)	39.7%	29.1 µM [rising, single point]	–
CC(=O)CSc1ncnc2c1oc1ccccc12	5.49%	–	–
Cc1ccc(N(Cc2cc3ccccc3[nH]c2=O)C(=O)c2ccco2)c(C)c1	9.43%	–	2.31 µM [rising, partial curve]
CN(Cc1nccn1C)C(=O)C1CCC(=O)N(CCc2ccc(Cl)cc2)C1 (configuration not stated)	16.7%	–	–
CCCCOc1ccc(C(=O)N/C(=C/C=C/c2ccccc2)C(=O)NCCCO)cc1	17%	–	7.31 µM [rising, partial curve]
COc1cc(/C=N/n2c(C)nc3ccccc3c2=O)cc(OC)c1O	27.6%	–	29.1 µM [rising, single point]
Cc1nc(-c2ccc(Cl)cc2)sc1C1(C)CC(c2cccc(Cl)c2)=NO1 (configuration not stated)	26%	–	10.3 µM [rising, partial curve]
CN(C)C=NCCn1c(N2CCOCC2)nc2c1c(=O)n(C)c(=O)n2C	-96.1%	23.1 µM [falling, partial curve]	23.1 µM [falling, partial curve]
OCC[C@H]1C[C@@H](O)[C@H](O)[C@]2(CCCc3ccccc3O2)O1	5.28%	–	0.651 µM [falling, single point]
CCCCNC(=O)c1onc(CSc2ccncc2)c1C(=O)NCCCC	0.55%	–	0.259 µM [rising, partial curve]

SMILES	cell number change	AC50 [1]	AC50 [2]
COc1ccc(CCNC(=O)CSc2nc(N)c(C#N)c(-c3cccs3)c2C#N)cc1OC	-34.2%	23.1 µM [falling, single point]	0.82 µM [rising, full curve, poor fit]
CCN(CC(=O)Nc1ccc2c(c1)OCCO2)Cc1cc(=O)oc2c(C)c(C)ccc12	-36.6%	3.66 µM [falling, partial curve, poor fit]	–
CSc1nc2[nH]ncc2c(=O)[nH]1	-13.2%	–	0.13 µM [falling, full curve, poor fit]
CCn1nc(C)c(CN2CCC(C(=O)Nc3cccc(-c4cccc(Cl)c4)c3)CC2)c1C	-13.6%	–	1.84 µM [rising, partial curve]
COc1cc(/C=C2\CCC/C(=C\c3ccc(O)c(OC)c3)C2=O)ccc1O	-38.3%	5.17 µM [falling, partial curve]	11.6 µM [falling, partial curve]
CCN(C(=O)CN1C(=O)NC2(CCc3ccccc32)C1=O)C1CCCCC1 (configuration not stated)	28%	–	–
O=C(CSc1ncccc1-c1nc2ccccc2[nH]1)N1CCc2ccccc21	-9.94%	–	0.82 µM [rising, full curve]
N#CC(C#N)=C(Nc1ccc(F)cc1)SCc1cccc(F)c1	-36.9%	1.16 µM [falling, full curve]	1.64 µM [falling, full curve]
COc1ccc(Cn2nnnc2C(c2ccc3ncccc3c2)N2CCN(C3CCCCC3)CC2)cc1 (configuration not stated)	-2.24%	0.146 µM [falling, full curve, poor fit]	–
O=C(Nc1cccc(S(=O)(=O)NC2=NCCC2)c1)C1CCCCC1	-4.06%	–	–
Cc1cc(Cl)ccc1OCC(=O)Nc1nc(-c2cccs2)cs1	-1.21%	–	6.51 µM [falling, single point]
CCN(CCO)C(=O)C12CCC(C)(C(=O)C1)C2(C)C (configuration not stated)	-8.74%	–	0.00461 µM [falling, full curve, poor fit]
Cc1ccc2c(CN3CCCCC3CCO)cc(=O)oc2c1 (configuration not stated)	0.901%	–	–
N#CC(=C=[N-])c1nc2ccccc2nc1-[n+]1cccc(NC(=O)c2ccccc2)c1	-39.3% and -5.66%	6.51 µM [falling, full curve]	6.51 µM [falling, full curve] and 29.1 µM [falling, single point]
COc1cc(/C=C/C(=O)OCC(=O)N2CC3(C)CC2CC(C)(C)C3)ccc1O (configuration not stated)	–	–	29.1 µM [falling, partial curve]
O=C(NCc1cccc(Cl)c1)c1cnn2c1NC(c1ccco1)CC2C(F)(F)F (configuration not stated)	–	0.116 µM [rising, full curve, poor fit]	0.326 µM [rising, partial curve, poor fit]
Cc1ccc(C(=O)N/C(=C\c2ccco2)C(=O)NC2CCS(=O)(=O)C2)cc1 (configuration not stated)	15.6%	–	0.82 µM [falling, full curve, poor fit]
CC(C(=O)NCC1CCCCC1)N1CCc2ccccc2C1 (configuration not stated)	45.1%	16.4 µM [rising, single point]	–
CCCc1nnc(NC(=O)Cn2c(=O)oc3ccccc32)s1	18.8%	–	–
